These are yes or no findings as the source states them, for the method shown. A result given as binding can be weak or reduced; the word gives no strength.
Molecular target: yeast tropomyosin Tpm1 (recombinant) (S. cerevisiae) (UniProt P17536)
Test: pull-down; beads coated with Tpm1 or BSA incubated with 50 nM Cof1, Cof1-5 or Cof1-22; bound cofilin shown by immunoblot with yeast cofilin antibody; both purified

The chains behind the UniProt entries cited, without tags or fusion partners. Where a name states a change or a piece, a line headed by the entry shows the natural chain unless it says otherwise.
UniProt Q03048: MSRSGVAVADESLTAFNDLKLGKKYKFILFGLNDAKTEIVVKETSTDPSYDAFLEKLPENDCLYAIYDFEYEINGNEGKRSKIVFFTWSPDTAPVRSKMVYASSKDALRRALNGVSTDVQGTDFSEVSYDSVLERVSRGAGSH

binding: binds
Substance: yeast cofilin mutant Cof1-5 (from UniProt Q03048)
